PubChem BioAssay AID743121 – NCATS | 2013
Purpose: 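Genes whose silencing strengthens cell killing by camptothecin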 (primary screen). Cell system: MDA-MB-231 cells, a human breast cancer line. Reagents: single siRNA against human genes, 20 nM siRNA (0.8 pmol per well). Time to read-out: 120 h (drug added 48 h after transfection, read 72 h later). Treatment: camptothecin 20 nM (about EC30) for 72 h; vehicle 0.1% DMSO in parallel plates. Detection: 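Cell viability by ATP luminescence (CellTiter-Glo) as % of non-targeting siRNA wells, and the log2 ratio of viability without drug over viability with camptothecin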. Scale: log2 vehicle/camptothecin viability: higher = stronger sensitisation to camptothecin; viability with camptothecin: higher = more viable cells. Call rule: 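Each gene scored by redundant siRNA activity (RSA) over its individual siRNA ratios; a gene is called active at p < 0.001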.
Here is one part, drawn at random, of about 26,000 reagents tested. 167 of them (0.63%) count as active. 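Calls are per gene from RSA p-values that are not deposited; an individual active-marked siRNA can sensitise only weakly.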 Entries without a mark were called inactive. The numbers tell different reagents against one gene apart. Not all columns of the deposit are shown.

target	siRNA no.	log2 vehicle/camptothecin viability	viability with camptothecin (% of control)
CD28	1	0.1	55.1
CD28	2	-0.141	115
CD28	3	-0.291	84.4
CD28	4	0.0969	95.4
ATP6V1C1	1	0.633	42.1
ATP6V1C1	2	-0.263	80.7
ATP6V1C1	3	-0.467	90.2
MAOA	1	-0.322	47.9
MAOA	2	0.0944	54
MAOA	3	-0.061	76.6
MAOA	4	-0.115	90
CAMKK1	1	-0.0173	101
CAMKK1	2	-0.325	13.5
CAMKK1	3	-0.118	96.6
CAMKK1	4	-0.0931	103
RAB26	1	-0.16	89.3
RAB26	2	0.67	2.93
RAB26	3	-0.128	28.9
RAB26	4	-0.139	96.8

Taken from above.
Under “viability with camptothecin (% of control)”, RAB26 #4 reads 96.8
For “viability with camptothecin (% of control)”, MAOA #2 reads 54
Under “log2 vehicle/camptothecin viability”, CD28 #2 is entered as -0.141

More reagents follow:
target	siRNA no.	log2 vehicle/camptothecin viability	viability with camptothecin (% of control)
EDIL3	1	0.00929	59.2
EDIL3	2	-0.105	89.9
EDIL3	3	-0.407	71.7
EDIL3	4	0.0392	69.2
PPP2R5B	1	-0.134	95.6
PPP2R5B	2	0.671	6.5
PPP2R5B	3	-0.517	75.6
PPP2R5B	4	0.117	104
MXD3	1	0.0122	91.7
MXD3	2	-0.669	84.9
MXD3	3	-0.0582	89.5
MXD3	4	0.691	51.8
